In patent publication US12409183B2, “Method of using iloprost for treating frostbite” (BTG INTERNATIONAL INC., priority 2023, dated 2025):
Where “and” joins values, the source holds several entries; their conditions need not be identical. Equal entries are not always repeated. This continues a long series; more values of the same kind are listed elsewhere.

Test: IV bag solution stability of fully diluted ready-to-use iloprost (HPLC)
Format: physicochemical
Method: Iloprost 100 μg/mL injection product is administered to patients by IV bag infusion over a period of six hours. The fully diluted ready to use iloprost is prepared in pharmacy cleanroom using sterile preparation standards (USP Chapter <797>) by pharmacy trained and licensed staff. The fully diluted ready to use drug product may be prepared several hours ahead of treatment with storage at ambient conditions or several days ahead of treatment with storage at refrigerated (2-8° C.) conditions. […] The bags are then manually mixed gently to provide a uniform solution. Administration IV bags were prepared and stored at several conditions with routine sampling for assay testing for stability under i) 25° C./60% RH, ii) 5° C. for 5 days to 25° C./60% RH, iii) 5° C. for 8 days to 25° C./60% RH. IV Bag Sample Preparation: Two 50 mL syringes with 18-gauge needles were assembled. 1.0 mL syringe with 18-gauge needle was assembled. Using a 50 ml syringe, 50 mL of 0.9% NaCl was transferred into an empty IV bag (sterile, ICU Medical) using the injection port. Using a second 50 ml syringe, 49 mL of 0.9% NaCl was transferred into the same IV bag using the injection port resulting in 99 mL of solution. […] The needle was removed and the port was securely closed. The IV bag was gently inverted several times to mix. During inversion, it was occasionally paused to squeeze the injection port area to ensure liquid rinsed into area several times. Sampling Procedure: For sampling, a 3 mL syringe was assembled with an 18-gauge needle. Using a 3 mL syringe, 2 mL of IV bag solution was withdrew through the injection port and 1 mL was transferred to a HPLC vial for neat injection and the other 1 mL was transferred to a back-up HPLC vial. HPLC vials were stored at refrigerated conditions 2-8° C. Sample Storage and Sampling: For each testing conditions (i-iv discussed above), 12 IV bag samples were prepared (6 IV bags for condition ia)-see below for sampling time). For condition i), all 12 IV bags were then placed into 25° C./60% RH stability chamber ensuring each bag is resting on its largest surface area side. After the first time point, the IV bags were removed from the chamber and each IV bag was mixed by inversion several times. Sampling from each IV bag was taken for HPLC analysis. After sampling, the IV bags were placed back into 25° C./60% RH stability chamber ensuring each bag is resting on its largest surface area side, until next sampling time. At each sampling time, the IV bags were removed from the chamber and each IV bag was mixed by inversion several times before samples were removed. For conditions ii) and iii), all 12 IV bags for each testing condition were placed into a 2-8° C. stability chamber ensuring each bag is resting on its largest surface area side. After 5 days have passed for condition ii) or after 8 days have passed for condition iii), the IV bags were removed from the chamber and allowed to equilibrate to room temperature. Each IV bag was mixed by inversion several times. Sampling from each IV bag was taken for HPLC analysis. Then the IV bags were placed in the 25° C./60% RH stability chamber and sampled at certain time points as discussed herein. Sampling time for condition […], and 24 h Sampling time for ib): 8 h, 12 h, 48 h, and 96 h Sampling time for condition ii): 5 days (at the end of storage in 2-8° C. stability chamber), 5 days and 8 h, and 5 days and 12 h Sampling time for condition iii): 8 days (at the end of storage in 2-8° C. stability chamber), 8 days and 8 h, and 8 days and 12 h Sample Analysis: Samples were analyzed by HPLC using a validated method (validation protocol not shown). [table] The concentration of each sample per the equation below: […] The % Initial (initial concentration) of each stored sample was determined per the equation below: […]

[1] = Batch 2, 5° C. for 8 days, 25° C./60% RH for 8 hr
[2] = Batch 2, 5° C. for 8 days, 25° C./60% RH for 12 hr
[3] = Batch 2, 8-day study (Table 1G), 5° C. for 5 days

## CC#CCC(C)[C@H](O)/C=C/[C@@H]1[C@H]2C/C(=C/CCCC(=O)O)C[C@H]2C[C@H]1O (stereo partly drawn) [iloprost, (5E)-5-[(3aS,4R,5R,6aS)-5-hydroxy-4-[(E,3S)-3-hydroxy-4-methyloct-1-en-6-ynyl]-3,3a,4,5,6,6a-hexahydro-1H-pentalen-2-ylidene]pentanoic acid]
Batch 1, 5° C. for 8 days to 25° C./60% RH study, Initial (T = 0)
  Iloprost: 957.6 ng/mL and 970.1 ng/mL and 966.1 ng/mL and 989.6 ng/mL and 959.6 ng/mL and 964.8 ng/mL
Batch 1, 5° C. for 8 days, 25° C./60% RH for 8 hr
  Iloprost: 963.5 ng/mL and 955.9 ng/mL and 967.8 ng/mL and 938.7 ng/mL and 1033 ng/mL and 961.8 ng/mL
Batch 1, 5° C. for 8 days, 25° C./60% RH for 12 hr
  Iloprost: 980.5 ng/mL and 964.1 ng/mL and 986.4 ng/mL and 967.5 ng/mL and 964.2 ng/mL and 952 ng/mL
Batch 1, 8-day study (Table 1F), 5° C. for 5 days
  Iloprost: 994.4 ng/mL and 953.2 ng/mL and 978.4 ng/mL and 953.1 ng/mL and 984.2 ng/mL and 956.7 ng/mL
Batch 2, 5° C. for 5 days to 25° C./60% RH study, Initial (T = 0)
  Iloprost: 1011 ng/mL and 986 ng/mL and 1022 ng/mL (2×) and 1001 ng/mL
Batch 2, 5° C. for 5 days, 25° C./60% RH for 12 hr
  Iloprost: 1003 ng/mL and 1017 ng/mL and 985.9 ng/mL
Batch 2, 5° C. for 8 days to 25° C./60% RH study, Initial (T = 0)
  Iloprost: 992.7 ng/mL and 979.6 ng/mL and 983.6 ng/mL and 998.9 ng/mL and 1009 ng/mL and 1026 ng/mL
[1]
  % Initial: 100% and 98% and 101% and 99% and 102%
  Iloprost: 983.9 ng/mL and 964.5 ng/mL and 1004 ng/mL and 997.6 ng/mL and 1011 ng/mL and 1010 ng/mL
[2]
  % Initial: 99% and 98% and 101% and 100% and 102%
  Iloprost: 967.5 ng/mL and 964.4 ng/mL and 1007 ng/mL and 1011 ng/mL and 1013 ng/mL and 1009 ng/mL
[3]
  % Initial: 100%
  Iloprost: 970.1 ng/mL and 957.9 ng/mL and 1020 ng/mL and 1007 ng/mL and 993.6 ng/mL and 1014 ng/mL
